From PubChem BioAssay AID623959 (National Center for Advancing Translational Sciences (NCATS), 2012)
Screen size: about 1,400 compounds; fewer than 10 were called active. About 8% were inconclusive and are not listed. Calls follow the shape of the dose curve; as a rule, active = well fitted curve in the direction sought with a large enough effect; inconclusive = small, poorly fitted or top-dose-only effect, or another doubt; inactive = no such curve, though single readings can be large or run the other way. The list shows a part of the results.

Amino acid sequences for entries named in this document (tags omitted).
UniProt Q8NER1, whole entry, looked up: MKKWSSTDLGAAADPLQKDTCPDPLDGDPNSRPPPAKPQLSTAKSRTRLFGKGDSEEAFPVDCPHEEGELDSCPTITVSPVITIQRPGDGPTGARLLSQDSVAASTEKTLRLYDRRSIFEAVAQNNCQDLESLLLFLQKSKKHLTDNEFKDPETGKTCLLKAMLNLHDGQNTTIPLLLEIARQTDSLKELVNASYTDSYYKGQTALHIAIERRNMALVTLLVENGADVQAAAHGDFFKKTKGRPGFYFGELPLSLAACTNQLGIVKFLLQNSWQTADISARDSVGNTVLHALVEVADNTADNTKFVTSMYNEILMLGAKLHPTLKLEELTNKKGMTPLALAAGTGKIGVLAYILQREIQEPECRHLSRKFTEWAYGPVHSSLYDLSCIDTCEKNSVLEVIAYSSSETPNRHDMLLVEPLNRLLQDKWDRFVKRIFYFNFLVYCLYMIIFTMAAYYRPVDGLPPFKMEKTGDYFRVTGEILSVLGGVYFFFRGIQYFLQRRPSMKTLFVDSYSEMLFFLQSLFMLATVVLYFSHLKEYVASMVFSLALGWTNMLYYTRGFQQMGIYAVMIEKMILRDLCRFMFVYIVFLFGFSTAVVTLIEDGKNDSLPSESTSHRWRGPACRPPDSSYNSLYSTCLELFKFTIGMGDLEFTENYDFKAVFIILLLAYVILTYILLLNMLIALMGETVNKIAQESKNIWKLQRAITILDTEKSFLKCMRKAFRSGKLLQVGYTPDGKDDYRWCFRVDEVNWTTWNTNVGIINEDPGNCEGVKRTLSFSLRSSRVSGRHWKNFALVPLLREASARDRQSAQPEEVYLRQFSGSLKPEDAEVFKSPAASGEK

target: Transient receptor potential cation channel subfamily V member 1 (Homo sapiens) (UniProt Q8NER1); assay: qHTS Assay for Compounds that Act as Potentiators of the Vanilloid Receptor 1: Hit Validation; conditions: TRPV1-expressing cells, Fluo-8 calcium influx, capsaicin EC20; series mostly up to 42.1 µM; activity change, positive = potentiation: at the top concentration; also: % of control where 0% means no effect
Method in brief: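 Calcium influx via Fluo-8 fluorescence (480/520 nm) on FDSS: 10 s baseline, 3 min compound read, 2 min read after EC20 capsaicin. TRPV1-expressing cells plated 2000/well, grown overnight at 35.5 °C.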

Activity change, positive = potentiation, inactive:
COc1cccc(C(=O)N(C)CC2CCN(CCc3cccc(C(F)(F)F)c3)CC2)c1 5.31%
CCc1nc(Nc2ccc3c(c2)OCCO3)c2oc3ccccc3c2n1 -39.2%
Cc1ccc(-c2csc(NC(=O)CN3CCOCC3)n2)cc1C -39.1%
Cc1ccc(OCC(=O)c2c[nH]c3ccccc23)c([N+](=O)[O-])n1 -9.4%
CCOC(=O)[C@H]1[C@H]2COc3ccc(Br)cc3[C@@H]2N2C(=O)c3cc(F)c(F)cc3NC(=O)[C@@]12C -38.8%
CC1CCC(NC(=O)C2(C)CCC(=O)N2Cc2cccnc2)CC1 (centres undefined) -8.11%
CC(=O)N(C)C1(c2nnnn2CCOC(=O)Nc2ccc(Cl)cc2)CCCCC1 -4.12%
Cc1ccc(C(=O)CSc2nc3ccc(C(=O)NCCN4CCCCC4)cc3c(=O)[nH]2)cc1 -5.24%
O=C1C(=O)N(Cc2cccnc2)C(c2cccc([N+](=O)[O-])c2)/C1=C(/O)c1ccc2c(c1)OCO2 (centres undefined) 0.0194%
Cc1cccc(N2CCN(C(=S)Nc3ccc4nc(N5CCOCC5)cc(C)c4c3)CC2C)c1 (centres undefined) -2.81%
CCc1ccc(CNC(=O)CCc2cn(C)c3ccccc23)cc1 -5.05%
S=C(Nc1ccccc1Cl)N(Cc1ccccc1)Cc1ccccn1 1.78%
O=C(NCc1nnc(SCC(=O)N2CCc3ccccc32)o1)c1cccs1 7.25%
O=C(O)c1ccc(CSc2nnc(-c3ccccc3Br)o2)cc1 -2.28%
CC(/C=C/c1ccc2c(c1)OCO2)=N\NC(=O)c1ccccc1 6.97%
COC(=O)CCC(=O)OC1(C)C(=O)C=C2C=C(C3CC3)N(c3ccccc3)C=C2C1=O (centres undefined) -6.19%
CCc1nnc(NC(=O)CSc2nnc(CNC(=O)c3cc(OC)c(OC)c(OC)c3)o2)s1 -9.07%
CCOc1cc(S(=O)(=O)NCc2ccccc2)ccc1F -4.71%
COc1cccc(C=Nc2ccc3c(c2)OCCO3)c1O -6.77%
O=C(OCc1cc2ccccc2[nH]c1=O)c1ccc([N+](=O)[O-])cc1 -10.2%
COc1ccc(CCNC(=O)CCCOc2cccc(C)c2C)cc1OC -32.2%
COC(=O)C1=C(C(=O)OC)[C@@H]2N(Cc3ccccc3)c3ccccc3[C@@]23C[C@@H](C(=O)OC)N(C(=O)COCc2ccccc2)C3=N1 -14.7%
Cc1ccc(C2Nc3cccc4cccc(c34)N2)cc1 -16.1%
Cc1cccc(C(C)n2nnc3ccccc32)c1O (centres undefined) -7.52%
CC(NC(=O)COC(=O)c1ccc(Cl)cc1O)c1ccc(F)cc1 (centres undefined) -32.2%
O=C(Cc1ccccc1)NCCSC1CCCCC1 -31.6%
COc1ccccc1C(=O)C1CCCN(Cc2cccc(OCCO)c2)C1 (centres undefined) -5.3%
Nn1c(SC/C=C/c2ccccc2)nnc1-c1cccnc1 1.13%
CCC(C)Sc1cccc(-c2nc3cc(C)ccn3c2NCc2ccccc2)c1 (centres undefined) -39%
C#CCn1c(=NC(=O)CN2C(=O)CCC2=O)sc2cccc(C)c21 -4.89%
CCOC(=O)C1=NOC(COc2ccccc2C=O)C1 (centres undefined) 2.69%
CC(C)(C)c1cc(CCC(=O)NCc2ccncc2)cc(C(C)(C)C)c1O -38.4%
O=C1NC(=O)/C(=C\c2ccc(N3CCOCC3)o2)N1 -10.5%
CC(C)CN(CC(C)C)S(=O)(=O)N1CCC(C(=O)NC2CCCCCCC2)CC1 -30.9%
CN(C)CCCN1C(=O)C(=O)/C(=C(/O)c2ccncc2)C1c1cccc(Br)c1 (centres undefined) -5.04%
Cc1cccnc1NC(=O)C(C)Oc1ccccc1 (centres undefined) 3.92%
CCN1CCCC1CNC(=O)c1ccc2c(c1)NC(=O)/C(=C\c1ccc(OC)c(OC)c1)S2 (centres undefined) -8.63%
COc1ccc(-c2nn(-c3ccccc3)cc2C(=O)NC(=S)Nc2cc(Cl)ccc2Cl)cc1 -10.8%
Cn1c(=O)c2ccccc2n(CC(=O)Nc2ccc3c(c2)OCCO3)c1=O -4.73%
CC(C)(C)c1ccc(NC(=O)c2ccsc2)cc1 -38.1%
COc1ccccc1NC(=S)Nc1cccc(F)c1 -15.2%
Nc1ccccc1C(=O)N1CCc2ccccc21 -8.96%
O=C(/C=C/c1ccccc1)Nc1cccnc1Cl -35.6%
O=C(NCc1ccncc1)c1ccc(Oc2ccccc2)cc1 -35.7%
CC(C)c1ccc(/C=C/C(=O)N2CCOCC2)cc1 -38.6%
CCc1ccc(C(=O)CSc2n[nH]c(-c3ccncc3)n2)cc1 -4.3%
CCOC(=O)c1ccc(NC(=O)NCc2ccccc2OC)cc1 -33.4%
CC1=C(C)CC(C(=O)NCc2ccccc2F)C(C(=O)O)C1 (centres undefined) -7.39%
Cc1nn(Cc2ccc(Cl)c(Cl)c2)c(C)c1NC(=O)c1cc(-c2ccc3c(c2)OCO3)on1 -4.56%
COC(=O)c1ccc(CNC(=O)COC(=O)CCC2CCCC2)cc1 -27.4%
CSc1ncccc1C(=O)OCc1ccc(Br)cc1 -6.08%
CCOC(=O)[C@H]1[C@H]2COc3ccc(C)cc3[C@@H]2N2C(=O)c3cc(F)ccc3NC(=O)[C@@]12C -39.2%
CCC(C(=O)O)n1nc(-c2ccccc2)c2cc(Cl)ccc21 (centres undefined) -0.771%
O=C1[C@H]2[C@@H](c3ccc(F)cc3)N3C(=O)N(c4cccc(Br)c4)C(=O)[C@@]3(Cc3ccccc3)[C@H]2C(=O)N1C1CCCCC1 -7.1%
CCCCn1nc(NC(=O)COC)c2cc3ccc(C)cc3nc21 -36.9%
Cc1cc(N/N=C/c2ccccc2)nc(N2CCOCC2)n1 -37%
CCC(CO)NCc1ccc(OCC(O)c2ccccc2)c(OC)c1 (centres undefined) -0.957%
COc1cc(OC)c(NC(=O)CCc2nc(-c3ccc(C)cc3)no2)cc1Cl -4.21%
Cc1ccc(S(=O)(=O)N(CC(=O)Nc2ccccc2C(=O)O)c2ccccc2C)cc1 -3.23%
CCc1ccc(NC(=O)c2ccc3ncsc3c2)cc1 -37.9%
Cc1noc(C)c1C(=O)NCCCN1CCCC1=O -10.5%
COCCCNc1nc(N)c([N+](=O)[O-])c(NCc2ccccc2)n1 8.3%
Cc1cc(C)n2nc(C(=O)N3CCCC(Nc4ccc(C(C)C)cc4)C3)cc2n1 (centres undefined) -38.9%
Cc1ccc(-n2nc(C)cc2NC(=O)CC#N)cc1 7.28%
Cc1cc(C(=O)N/N=C/c2cccc([N+](=O)[O-])c2)c(C)n1-c1ccccc1 -38.6%
Nn1c(Cc2ccccc2)nc2cc(Cl)ccc2c1=O -8.59%
CCOC(=O)N1CCN(C(=O)C2CCN(c3ncnc4c3sc3cccc(F)c34)CC2)CC1 -5.75%
C/C(=N/NC(=O)CNC(=O)C1COc2ccccc2O1)c1ccc2c(c1)OCCO2 (centres undefined) -2.72%
COc1ccc(CC(=O)NCCCc2ccccc2)cc1OC -38.4%
Cc1ccc(C(=O)c2ccccc2C(=O)Nc2ccccc2)cc1 -3.77%
CC(C)(C)c1ccc(NC(=O)N2CCCN(c3ccc([N+](=O)[O-])cn3)CC2)cc1 -37.3%
CCCNC(=O)C1CCN(S(=O)(=O)c2c(C)noc2/C=C\c2ccc(OC)cc2)CC1 6.07%
O=C(CCc1nc(-c2ccccc2F)no1)NC1CCN(Cc2ccccc2)CC1 -5.89%
Cc1nc2c(cnn2-c2ccccc2Cl)c(=O)n1-c1ccc(N2CCC(C)CC2)cc1 -10.6%
Cc1ccc(N2CCN(C(=O)N3CCCC3)CC2)cc1C -36.1%
O=C(Nc1ccc2c3c(cccc13)CC2)c1ccc(Br)o1 -35.9%
Cc1nnc(SCC(=O)NCCOc2ccc(Cl)cc2)n1-c1ccccc1 -6.48%
CC(=O)CC(C)(C)S(=O)(=O)c1ccc(NC(C)=O)cc1 -0.365%
CCOc1ccccc1CNc1nc2ccccc2n1C -0.0311%
CCc1ccc2[nH]c(=O)c(CN(CCO)C(=O)NCc3ccccc3)cc2c1 1.77%
CC(C)CCSc1nc(N2CCOCC2)c2c(c1C#N)CC(C)(C)OC2 -39%
N#Cc1nc(-c2ccc(OCc3ccccc3Cl)cc2)oc1NCCCn1ccnc1 -1.63%
N#CC1(P(=O)(c2ccccc2)c2ccccc2)CCCC1 0.0868%
O=C(CCN1C(=O)/C(=C/c2cccs2)SC1=S)NC1=NCCS1 -0.528%
CCCCN(C(=O)C1CC1)C1CCS(=O)(=O)C1 (centres undefined) -3.11%
CC(=O)Nc1ccc(NC(=O)c2cccc(-c3cc4ccccc4oc3=O)c2)cc1 -9.76%
COCCn1c(SCc2cc(=O)n3ccsc3n2)nnc1-c1ccncc1 0.941%
O=C(NCc1ccccn1)C(=O)NCc1ccccn1 -0.978%
CCOc1ccc(-n2c(=O)c3c4c(sc3n(CC(=O)NCC3CCCO3)c2=O)CCC4)cc1 (centres undefined) -0.738%
NNC(=O)C(Cc1c[nH]c2ccccc12)NC(=O)c1ccccc1 (centres undefined) -5.67%
CC(=O)c1cccc(NC(=O)c2ccc(OC3CSC3)cc2)c1 -39.1%
Cc1cc(=O)[nH]c(SCC(=O)Nc2nc3ccccc3s2)n1 -8.26%
Cc1noc(/C=C/N(C)C)c1S(=O)(=O)N1CCCC(C(=O)NCc2ccco2)C1 (centres undefined) -5.74%
CC(C(=O)N=c1sc2ccccc2n1C)N1C(=O)C2CC=CCC2C1=O (centres undefined) -3.07%
Cc1nn(-c2ccccc2)nc1C(=O)Nc1nnc(C(F)(F)F)s1 -7.1%
Cc1ccc(CC(=O)NNC(=O)c2ccncc2)cc1C -8.36%
O=C(Nc1ccc(Br)cc1)c1cc2ccccn2n1 -38.6%
CCOC(=O)c1[nH]c(C)c(C(=O)c2ccc(C)cc2)c1C -38.9%
CSc1ccc(/C=C/C(=O)Nc2ccccc2)cc1 15.6%
CCOC(=O)c1ccc(N/C=C/C(=O)c2ccc(OC)cc2)cc1 -0.0875%
O=C(Nc1ccccc1)c1csc(-c2ccccc2)n1 -38.7%
CCC(C)(C)c1ccc(OCC(=O)Nc2ccncc2)cc1 -38.3%
CCOC(=O)C(Cc1ccccc1)C(=O)Nc1cccc(C)c1 (centres undefined) -5.17%
COc1c(O)ccc(/C=N\NC(=O)c2ccc3c(c2)OCO3)c1[N+](=O)[O-] -5.8%
Cc1cc(C)n(-c2nnc(N3CCN(c4ccccc4)CC3)nn2)n1 -4.84%
CC(C)c1ccc(NC(=O)c2cccc(Br)c2)cc1 -25.8%
Nc1[nH]ncc1-c1ccc(F)cc1 -1.83%
O=C(NCCc1ccc(O)c(O)c1)C1COc2ccccc2O1 (centres undefined) -38%
CC(C)(C)NC(=O)CN(C(=O)CN1C(=O)C(=O)c2ccccc21)C(C)(C)C -6.12%

Fetched one by one from above:
Activity change, positive = potentiation, inactive:
Cc1ccc(-n2nc(C)cc2NC(=O)CC#N)cc1 7.28%
Cc1ccc(CC(=O)NNC(=O)c2ccncc2)cc1C -8.36%
CC(C)(C)c1cc(CCC(=O)NCc2ccncc2)cc(C(C)(C)C)c1O -38.4%
CC(NC(=O)COC(=O)c1ccc(Cl)cc1O)c1ccc(F)cc1 (centres undefined) -32.2%
